PMC8539346 (Molecules, 2021)
HELM strings list residues between dots; [ac] is acetyl, [am] amide, other brackets name non-standard units.

Assay: general procedure: Fmoc solid-phase peptide synthesis; 2-Chlorotrityl chloride resin; DIPCDI/HOBt; TBTU/DIPEA (solution couplings)
Conditions: late stage modification step

Substance: PEPTIDE1{R.G.D.[dF].K}|PEPTIDE2{R.G.D.[D-Phe4I].K}|PEPTIDE3{E}$PEPTIDE1,PEPTIDE1,1:R1-5:R2|PEPTIDE2,PEPTIDE2,1:R1-5:R2|PEPTIDE3,PEPTIDE1,1:R3-5:R3|PEPTIDE3,PEPTIDE2,1:R2-5:R3$$$V2.0
- step yield: 71%
